Numbering of substitutions follows the chain as printed. For part of these data: A negative result means that nothing was seen under these conditions. Tags and fusion partners may be left off the protein sequences shown. For part of these data: For at least one entry, the source does not settle the construct or the ends of the probe. For part of these data: Where cells or extracts were used, other partners may take part.
Key:
[1] = biological target: T1, PAH, endogenous in Pair-/- mouse hepatocytes (Mus musculus) (UniProt P16331); test: pull-down; details: MS2-TRAP and rescue CLIP in Pair-/- hepatocytes; protein in cells
T1 sequence (looked up, limits assumed): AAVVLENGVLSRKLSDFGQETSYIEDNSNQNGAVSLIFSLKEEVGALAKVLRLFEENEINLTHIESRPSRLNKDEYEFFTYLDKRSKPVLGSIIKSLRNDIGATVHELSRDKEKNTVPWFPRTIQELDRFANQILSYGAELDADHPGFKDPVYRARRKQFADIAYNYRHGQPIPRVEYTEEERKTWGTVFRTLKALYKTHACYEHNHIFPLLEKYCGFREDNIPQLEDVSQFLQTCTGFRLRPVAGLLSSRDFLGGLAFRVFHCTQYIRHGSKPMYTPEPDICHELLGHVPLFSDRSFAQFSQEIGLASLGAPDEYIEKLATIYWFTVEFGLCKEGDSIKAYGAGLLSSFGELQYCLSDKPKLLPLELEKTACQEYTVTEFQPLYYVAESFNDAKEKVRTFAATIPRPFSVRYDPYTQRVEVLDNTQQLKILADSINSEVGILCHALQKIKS

[2] = biological target: T2, PAH, endogenous mouse liver (Mus musculus) (UniProt P16331); test: pull-down; details: biotinylated sense Pair, mouse liver lysate, LC-MS; CLIP maps nt 460-496; protein in an extract
T2 sequence (looked up, limits assumed): T1 sequence (looked up, limits assumed)

[3] = biological target: T3, PAH (phenylalanine hydroxylase), wild type (Homo sapiens) (UniProt P00439); test: activity assay; details: purified recombinant protein
T3 sequence (looked up, limits assumed): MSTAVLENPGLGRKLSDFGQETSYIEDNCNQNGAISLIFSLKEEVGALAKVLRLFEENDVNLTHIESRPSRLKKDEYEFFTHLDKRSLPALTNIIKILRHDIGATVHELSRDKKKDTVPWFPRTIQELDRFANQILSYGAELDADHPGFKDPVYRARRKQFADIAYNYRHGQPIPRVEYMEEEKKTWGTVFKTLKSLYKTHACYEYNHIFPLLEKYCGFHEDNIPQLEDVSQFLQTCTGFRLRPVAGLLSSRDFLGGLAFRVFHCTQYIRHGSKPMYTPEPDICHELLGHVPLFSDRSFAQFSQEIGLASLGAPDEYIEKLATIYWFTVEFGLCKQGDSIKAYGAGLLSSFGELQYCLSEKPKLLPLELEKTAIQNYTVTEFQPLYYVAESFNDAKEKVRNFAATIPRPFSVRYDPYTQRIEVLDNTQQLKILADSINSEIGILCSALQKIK

[4] = biological target: T4, PAH R408W (Homo sapiens) (UniProt P00439); test: activity assay; details: mimic enhances kcat of R408W; purified recombinant protein; protein details: His-tag, E. coli
T4 sequence (looked up): T3 sequence (looked up, limits assumed) with R408W

[5] = biological target: T5, PAH TH63-64PN T63P,H64N (Homo sapiens) (UniProt P00439); test: activity assay; details: no enhancement of kcat; purified recombinant protein; protein details: His-tag, E. coli
T5 sequence (looked up): T3 sequence (looked up, limits assumed) with T63P, H64N

[6] = biological target: T3, PAH (phenylalanine hydroxylase), wild type (Homo sapiens); test: binding assay; details: DIG-tagged HULC dot blot; affinity similar to mimic; purified recombinant protein
[7] = biological target: T6, PAH, endogenous human liver (Homo sapiens) (UniProt P00439); test: binding assay; details: CLIP (nt 183-216) and RIP in human liver; protein in an extract
T6 sequence (looked up, limits assumed): T3 sequence (looked up, limits assumed)

Sequence: GUGUCAUGCAAGAAGGAGGCGGCGGCGGCGGCCGGAGCUGGAGGGGGAGGAGGGGAGGAACCUGAUCCUCGGUAGCGAAGGGCUGGAGGCAAACACCGAGCUCCCCCUGAGCCGCCUGGGAGCAGGGAGGGUUCUGCUACCCUGAGGGGCCCUCCCCGCGGGGCAGAGGGGUUUCCUCAGCAGUGCCCCGGAGCAGGGACCGCGCCAGCCAGCAGAAACAGCUAGUUGUUGUCUGCAGUGAAGAAUAAUUGGAAGCAUGGUGCCUGUUUCUUUUCCUGUGGGAGGAAGUCACAGCAUCUACUUCUGAAUCUGUGCUUGCCUUGAGGAAAAACGGCAUGGCACAGGAAUGUGGACGCUUUCAACCAGAGGAUUCUGUACGACGGUGUCGGCACACAAGGAGUGUUCCACUGACUGACCUCUUUUUGUUUUCAAAUGAAGAGGAGCCAAGAAUAGGACAGCUUGGGAAGGUGAGCUGCGUAUAGCUCGUCAGGCUGAGCUCAUCCUCGUCUACGGCCAAACGUUGGUUUCUCAUUUCUAGAAGAUGAAAGAUGUGAUGACUCAGGAAAAACUUGCUGCUCGAGAUGUGAGUCUUCAGAUGUUCCUGCCGCCAUAUCUGACAGCUGCUGCCAAGAUUCCCUGGUGGGAUGGACUCUUAUACCUCAACAACCAGAAGCCCAAGUAAACUCUUCUAUAAAUUGAAUGACUCAUGCUUAAAAAAAAAAACAAAAAACAAA [Pair full length (NR_040259.1)]
- binding result [1]: binds
- binding result [2]: binds

Sequence: CAAAAUGCAUAUGUAUCUUUG [HULC 181-201 mimic]
- functional effect ([3]; mimic increases kcat and Phe to Tyr conversion): active
- functional effect [4]: active
- functional effect [5]: not active

Sequence: AUGGGGGUGGAACUCAUGAUGGAAUUGGAGCCUUUACAAGGGAAUGAAGAGACAAGAGCUCUCUUUAUGCCACGUGAGGAUACAGCAAGGCCCCAAUCUGCAAGCCAGGAAGAGUCGUCACGAGAACCAGACCAUGCAGGAACUCUGAUCGUGGACAUUUCAACCUCCAGAACUGUGAUCCAAAAUGCAUAUGUAUCUUUGGAAGAAACUCUGAAGUAAAGGCCGGAAUAUUCUUUGUUUAAAACAUUAAAAACAAAACAGACCAAAGCAUCAAGCAAGAAGUUUCCUGGCAAUAAACUAAGCACAGCAUUAUUUUUUAAGGAACACAAAUUAAGUGUUCAACCUGUGGCAAAUUUGUACUUUCUCCCUGAAUUAUGUUGUUAUCAAAGAAAAAAAUUGGGAAGCAUGGCAAAAUAUCAUCAAAACUGAAACUAGAAUUAAACAAAACUAAAUUAAAAUGAAAUAAAAUGAUGUCCAUUCUUAAAAAAAAAAAAAAAAAA [HULC full length (NR_004855.2)]
- binding result [1]: binds
- binding result [6]: binds
- binding result [7]: binds

Sequence: CAAAAUGCAUGUGUAUCUUUG [HULC 181-201 mutant mimic (A191G)]
- functional effect ([3]; mutant mimic does not enhance activity, variant of HULC 181-201 mimic): not active

Reference: US20240342207, “MODIFIED NUCLEIC ACID COMPOSITIONS AND ASSOCIATED METHODS FOR TREATMENT OF PHENYLKETONURIA” (BOARD OF REGENTS, THE UNIVERSITY OF TEXAS SYSTEM, published 2024)
